# Construct, isoform or probe ends are uncertain for at least one entry.
# Amino acid sequences for entries named in this document (tags omitted).
# UniProt P0AG30, whole entry: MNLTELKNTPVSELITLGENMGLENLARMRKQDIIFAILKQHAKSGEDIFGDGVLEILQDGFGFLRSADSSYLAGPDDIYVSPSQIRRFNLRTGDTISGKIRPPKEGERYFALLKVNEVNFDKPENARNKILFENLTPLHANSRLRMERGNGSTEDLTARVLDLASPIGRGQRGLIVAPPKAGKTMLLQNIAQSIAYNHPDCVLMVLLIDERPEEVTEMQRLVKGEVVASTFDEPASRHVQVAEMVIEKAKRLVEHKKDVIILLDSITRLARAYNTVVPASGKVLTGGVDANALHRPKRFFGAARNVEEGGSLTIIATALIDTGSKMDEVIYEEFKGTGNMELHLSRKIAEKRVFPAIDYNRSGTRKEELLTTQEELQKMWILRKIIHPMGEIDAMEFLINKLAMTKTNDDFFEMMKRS
# Biological target: Rho WT (Escherichia coli) (UniProt P0AG30)
# Experiment: EMSA
# Conditions: 25 mM Tris-HCl pH 8.0, 5 mM MgCl2, 50 mM KCl, 1 mM DTT, 0.1 mg/ml BSA; 5 nM RNA, 0-50 nM Rho; 37 °C 5 min; 4% native gel at 4 °C; recombinant protein; label: [α-32P]UTP internal; probe letters rebuilt from the primers and the genome
row,Sequence,Kd
1,GGGAGAGUGGCAUAAACGCCUCAUCCGCCCUUGAGGAACAGCGCGAUCGGCAGCCGCGUUGUAUCAGGCAUCCUUUCAGACUCCUCCGAAUCCUUAAGUAUUUCCAGCCAUUCCCGCGCUUUUCAUCUUCUGUCUGAUAGCUGCUUUUCUCCUUCGCUUGCAUGAUUGGCAUAACUGCAAAGAAGGAGGUGUUCCCGUGAAUAAAUCAAUGUUGGCGGGUAUCGGGAUUGGUGUCGCAGCUGCGCUGGGCGUAGCGGCAGUGGCCAGUCUGAACGUGUUUGAACGGGGCCCGCAAUACGCUCAGGUUG [ycfJ terminator RNA],18.5 nM
2,GGGAGAGUGACAGCGCACCAAAUCCCCGGCUACGCCCGAAGCCGGGCAGGUCAACAAGGUGCAGCGUAAAAUGCGAGCUAAGUUCCUCGUCAAUGCAACGCCACACUUCGGCAUUCAGUCCCCAUCCGUGCAGCAGCACAAGAUGAACAUUCCCCUGACCUUUGGUCUGCCACCAGAUGUUAUUCAUCCGCUAUUGUUCUCUUUUGACUUACAAGGAUGAACAUAUGCUAACAGUACCGGGAUUAUGCUGGCUAUGCCGAAUGCCACUGGCGUUAGGUCAUUGGGGGAUUUGUUCGGUCUGUUCACG [gntX terminator RNA],23.2 nM
3,GGGAGAACUGCUUACGCGGCAUUAACAAUCGGCCGCCCGACAAUACUGGAGAUGAAUAUGAGCUAUACCCUGCCAUCCCUGCCGUAUGCUUACGAUGCCCUGGAACCGCACUUCGAUAAGCAGACCAUGGAAAUCCACCACACCAAACACCAUCAGACCUACGUAAACAACGCCAACGCGGCGCUGGAAAGCCUGCCAGAAUUUGCCAACCUGCCGGUUGAAGAGCUGAUCACCAAACUGGACCAGCUGCCAGCAGACAAGAAAACCGUACUGCGCAACAACGCUGGCGGUCACGCUAACCACAGCC [sodA terminator RNA],9.99 nM
4,GGGAGAGGGUGAUUUUUAUUCAGGAUCGCAUUUACAUCUGAUACAACCCAAUAAUUCGUGUAUCAGAGUUUAAACAGAGUUGUUUGCCACCAUCUCAAAUCUGUCGUGGAUAAAUCCUCCGUAGCCUUUACACUUAGGUAGCAAUAAAGGCACACAGAUGCAGCAAAGGAAUAAAUCAUGGGAUCUGAUGCGAAAAACUUGAUGAGCGACGGGAACGUGCAAAUUGUUAAGACCGGCGAGGUCAUUGGCGCGACGCAACUUACUGAAGGCGAGUUGAUUGUUGAAGCUGGCGGAAGAGCCGAAAAUAC [ydhQ terminator RNA],16.4 nM
5,GGGAGAGCUUCACUGACAUAUUCUGCGAACAACAUGCCGAACGUCGUAAAUAUGACCAGUCAAUAUCAGGACGAAGUUCUUCGCACAGAACCUCACCUCUUGUUGCACGUUCAAUUGCUGGACAUCUCUCGGCAGGCAAUUGACGUACCCCUUUGAUCCAUUGAUUUACGCUUGGAGGUGAUACACCUAAAAGCCUAGCCAUUGCUGAUUGCCCACCGACAACAGCACAAGCUUGCUUGAAUGAAUAGUUCUCUUUUUUCAUCGAAUGAACUCCAAAAACACACAGAAAUAUUAGGCGACGCCUAACGCAAUUGUCAAUAGGCUGUGCCUAAUGCAGUAAGG [trac (rac) terminator RNA],3.08 nM

# Reference: PMC9160355
